# Laboratory results from PubChem BioAssay AID2685 (National Center for Advancing Translational Sciences (NCATS), 2010).
# The list shows a part of the results. Shown are side measurements of this screen, not its main read-out; they come without a call. Most of these compounds were active or inconclusive in the main read-out, so they are no random draw. Potencies come from curve fits of mixed quality, noted in brackets.
# Assay: qHTS Assay for Lipid Storage Modulators in Drosophila S3 Cells;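 for cell number change: cells counted by Cell Tracker Red CMTPX staining in the red channel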
# Details: BODIPY lipid droplet fluorescence, 18-24 h; for cell number change: measured here: cell count max response, cells fed with added oleic acid
# Procedure, shortened: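 Drosophila S3 cells got compounds at several concentrations plus oleic acid (400 uM solution). Laser-scanning cytometry with 488 nm excitation read lipid droplets at 500-530 nm and cells at 575-640 nm. Percent activity was relative to 20 uM Triacsin C.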
# [1] = measured here: lipid fluorescence (Fed channel) AC50, cells fed with added oleic acid
# [2] = measured here: cell number channel AC50, cells fed with added oleic acid
Structure (SMILES),cell number change [%],AC50 [1],AC50 [2]
O=c1[nH]c(CN2CC=C(c3ccccc3)CC2)nc2cc(C(F)(F)F)ccc12,-0.106,"3.66 µM [rising, partial curve]",
COc1ccc2c(c1)CC1(CN2C)C(=O)NC(=O)N(CCc2ccccc2)C1=O (centres undefined),-36.7,,"7.31 µM [falling, partial curve]"
COc1cc2c(cc1OC)-c1c(OC)c(OC)c(OC)c3ccnc(c13)C2=O,8.55,"0.731 µM [rising, full curve]",
CN1C(=O)C(=Cc2sc(=O)n(-c3ccccc3)c2N(C)C)C(=O)N(C)C1=O,6.08,,"2.31 µM [rising, partial curve]"
O=C(c1cc(-c2cccnc2)nc2ccccc12)N1CCC2(CC1)OCCO2,5.46,"0.82 µM [falling, full curve]",
C=CCn1c(O)c(C(CC)=Nc2ccc(C(=O)O)cc2)c(=O)[nH]c1=O,13.9,"32.6 µM [rising, single point]",
Nc1ccc2c(c1)Cc1ccccc1-2,-13.3,"1.3 µM [falling, full curve, poor fit]",
Cc1ccccc1N1C(=O)CC(=O)NC1=O,11.3,"18.4 µM [rising, single point]",
CN(C)CC1Oc2ccccc2OC1(O)c1ccccc1 (centres undefined),-58.2,,"4.61 µM [falling, full curve]"
COc1ccc(CN2C(=O)NC(=O)/C(=C\c3ccco3)C2=O)cc1,,"3.66 µM [falling, single point]",
Nc1ccc(Cl)cc1C(=O)c1ccccc1Cl,-34.2,,"14.6 µM [falling, single point]"
Cc1csc(NC(=O)C2CCCN(S(=O)(=O)c3ccc4c(c3)oc(=O)n4C)C2)n1 (centres undefined),,,"0.164 µM [falling, full curve, poor fit]"
C#CCOCOCC#CCN(CC)CC,-12.3,"6.51 µM [falling, single point]","6.51 µM [falling, single point]"
CC(=O)O[C@H]1C(=O)[C@@]2(C)C([C@H](OC(=O)c3ccccc3)[C@]3(O)C[C@H](OC(=O)[C@H](O)[C@@H](NC(=O)Cc4ccccc4)c4ccccc4)C(C)=C1C3(C)C)[C@]1(OC(C)=O)CO[C@@H]1C[C@@H]2O (some centres undefined),-18.1,"14.6 µM [falling, single point]",
O=C(Nc1cccc(Cl)c1)c1c(O)c2c(n(Cc3ccccc3)c1=O)CCCC2,6.34,"2.06 µM [rising, partial curve]",
Cc1cccc(C(=O)Nc2ccc3c(c2)CC2(C(=O)N(C)C(=O)N(C)C2=O)C2CCCN32)c1 (centres undefined),-20.1,"6.51 µM [rising, single point]",
CC/C(=N\NC(N)=O)c1c(O)[nH]c(=O)[nH]c1=O,8.97,,
CC(C)CC(=O)Nc1ccc(S(=O)(=O)N2CC3CC(C2)c2cccc(=O)n2C3)cc1 (centres undefined),-2.09,,
COCCCN1Cc2ccccc2C1=N,120,"0.366 µM [rising, partial curve, poor fit]","29.1 µM [rising, partial curve]"

# Copied from the listing, three compounds:
Structure (SMILES),cell number change [%],AC50 [1],AC50 [2]
CN(C)CC1Oc2ccccc2OC1(O)c1ccccc1 (centres undefined),-58.2,,"4.61 µM [falling, full curve]"
COc1ccc(CN2C(=O)NC(=O)/C(=C\c3ccco3)C2=O)cc1,,"3.66 µM [falling, single point]",
Nc1ccc(Cl)cc1C(=O)c1ccccc1Cl,-34.2,,"14.6 µM [falling, single point]"

# Further results:

Structure (SMILES),cell number change [%],AC50 [1],AC50 [2]
Cc1nn(C2CCOC(C)(C)C2)c2c1C(c1ccc(OC(C)C)cc1)SCC(=O)N2 (centres undefined),9.51,"0.116 µM [rising, full curve, poor fit]","0.116 µM [rising, full curve, poor fit]"
N#CC(C#N)=Cc1ccc(-c2ccccc2F)o1,6.59,,"0.291 µM [falling, single point]"
O=C1NC(=O)N(CCNc2ncc(C(F)(F)F)cc2Cl)C(=O)C1Cc1ccc(Cl)cc1 (centres undefined),36,,"29.1 µM [rising, single point]"
c1ccc(NC2=NCCCS2)cc1,,,"4.11 µM [falling, single point]"
O=C(NCC(c1cccnc1)N1CCN(c2ccccc2F)CC1)Oc1ccccc1 (centres undefined),185,,"8.2 µM [rising, partial curve]"
Nc1ccc(N=Nc2ccccc2)cc1,15.5,"4.61 µM [rising, full curve]","0.82 µM [rising, single point]"
O=CNc1ccc(OP(=O)(Oc2ccccc2)Oc2ccccc2)cc1,6.85,"3.66 µM [rising, partial curve, poor fit]",
CCCCn1c(O)c(C(C)=NC(C)c2ccccc2)c(=O)[nH]c1=O (centres undefined),-1.33,"23.1 µM [rising, partial curve]",
Cc1cccc(C)c1NC(=O)c1cccn(Cc2ccc3c(c2)OC(F)(F)O3)c1=O,-71.7,"20.6 µM [falling, single point]","20.6 µM [falling, single point]"
CCn1c(P(C)(=O)O)nc2cc(NC(=O)c3ccccc3F)ccc21,-32.9,,"2.91 µM [rising, single point]"
CN(CC(=O)Nc1ccccc1-c1ccccc1)C1CCCCC1,-44.5,"18.4 µM [falling, single point]","20.6 µM [falling, single point]"
CC1CN(O)C2CCc3nonc3C12O (centres undefined),10.8,,
CN1CCN(Cc2ccccc2Sc2ccccc2)CC1,,"0.0259 µM [falling, full curve, poor fit]",
CCOC(=O)C1=Nc2ccccc2/C1=C\c1c(O)n(C)c(=O)n(C)c1=O,7.84,,
CCCc1cc(=O)oc2cc(OCC(=O)N3CCN(Cc4ccc5c(c4)OCO5)CC3)ccc12,-7.37,"6.51 µM [rising, single point]",
C[C@H]1CCC/C=C/C2C[C@H](O)CC2[C@H](O)/C=C/C(=O)O1 (some centres undefined),-19.5,"4.61 µM [falling, partial curve, poor fit]",
CCCCN1C(=N)C(CC)(CC)C(=O)NC1=O,-62.2,"20.6 µM [falling, single point]","18.4 µM [falling, single point]"
CN1CCN(CC#CCOc2ccc(Cl)cc2)CC1,18.5,,
C=CCn1c(O)c(C(C)=NCCc2ccccc2)c(=O)[nH]c1=O,6.59,,"6.51 µM [rising, single point]"
